{
  "source": "paper PMC8646516",
  "about": "(CPT: Pharmacometrics & Systems Pharmacology, 2021)",
  "origin": "cited, not measured here",
  "test_system": "endothelial barrier",
  "conditions": "cited from earlier work",
  "data": [
    {"smiles": "Cc1ccc(NC(=O)c2ccc(CN3CCN(C)CC3)cc2)cc1Nc1nccc(-c2cccnc2)n1", "note": "[imatinib]", "values": [
      {"measurement": "IC50 for endothelial barrier protection, total concentration", "result": 1900, "unit": "µg/L"}
    ]}
  ]
}
